Experimental data taken from US20190330638A1.
No constants are given. Whether binding was seen depends on the method and setting. For part of these data: Binding seen in cells or lysates may run through a third protein. Some binding calls cover weakened binding; strength is not graded here.

The chains behind the UniProt entries cited, without tags or fusion partners. Where a name states a change or a piece, a line headed by the entry shows the natural chain unless it says otherwise. Residues count along the entry.
UniProt P49959: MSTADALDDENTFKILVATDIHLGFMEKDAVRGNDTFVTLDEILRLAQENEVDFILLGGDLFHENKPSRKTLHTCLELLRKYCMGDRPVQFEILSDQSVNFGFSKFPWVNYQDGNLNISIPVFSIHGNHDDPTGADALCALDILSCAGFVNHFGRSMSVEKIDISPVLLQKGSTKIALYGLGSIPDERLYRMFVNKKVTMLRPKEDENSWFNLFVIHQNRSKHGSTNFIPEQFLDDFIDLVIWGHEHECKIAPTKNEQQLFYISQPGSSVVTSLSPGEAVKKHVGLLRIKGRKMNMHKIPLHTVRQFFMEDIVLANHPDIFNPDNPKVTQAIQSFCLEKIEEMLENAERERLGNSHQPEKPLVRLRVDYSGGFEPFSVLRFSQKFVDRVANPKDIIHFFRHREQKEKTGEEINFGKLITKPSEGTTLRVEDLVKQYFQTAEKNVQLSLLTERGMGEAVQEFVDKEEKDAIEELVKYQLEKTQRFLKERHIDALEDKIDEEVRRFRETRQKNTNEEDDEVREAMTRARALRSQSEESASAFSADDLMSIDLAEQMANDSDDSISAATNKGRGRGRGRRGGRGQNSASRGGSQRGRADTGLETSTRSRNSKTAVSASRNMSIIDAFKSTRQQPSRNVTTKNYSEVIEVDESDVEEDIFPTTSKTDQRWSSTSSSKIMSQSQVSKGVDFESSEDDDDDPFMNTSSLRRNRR
UniProt P45973: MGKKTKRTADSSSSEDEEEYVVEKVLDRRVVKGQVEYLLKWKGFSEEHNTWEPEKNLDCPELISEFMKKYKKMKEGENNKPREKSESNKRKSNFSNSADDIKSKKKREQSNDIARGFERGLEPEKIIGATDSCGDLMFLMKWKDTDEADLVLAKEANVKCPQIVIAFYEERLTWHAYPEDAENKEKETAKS
UniProt O94874, residues 2-794: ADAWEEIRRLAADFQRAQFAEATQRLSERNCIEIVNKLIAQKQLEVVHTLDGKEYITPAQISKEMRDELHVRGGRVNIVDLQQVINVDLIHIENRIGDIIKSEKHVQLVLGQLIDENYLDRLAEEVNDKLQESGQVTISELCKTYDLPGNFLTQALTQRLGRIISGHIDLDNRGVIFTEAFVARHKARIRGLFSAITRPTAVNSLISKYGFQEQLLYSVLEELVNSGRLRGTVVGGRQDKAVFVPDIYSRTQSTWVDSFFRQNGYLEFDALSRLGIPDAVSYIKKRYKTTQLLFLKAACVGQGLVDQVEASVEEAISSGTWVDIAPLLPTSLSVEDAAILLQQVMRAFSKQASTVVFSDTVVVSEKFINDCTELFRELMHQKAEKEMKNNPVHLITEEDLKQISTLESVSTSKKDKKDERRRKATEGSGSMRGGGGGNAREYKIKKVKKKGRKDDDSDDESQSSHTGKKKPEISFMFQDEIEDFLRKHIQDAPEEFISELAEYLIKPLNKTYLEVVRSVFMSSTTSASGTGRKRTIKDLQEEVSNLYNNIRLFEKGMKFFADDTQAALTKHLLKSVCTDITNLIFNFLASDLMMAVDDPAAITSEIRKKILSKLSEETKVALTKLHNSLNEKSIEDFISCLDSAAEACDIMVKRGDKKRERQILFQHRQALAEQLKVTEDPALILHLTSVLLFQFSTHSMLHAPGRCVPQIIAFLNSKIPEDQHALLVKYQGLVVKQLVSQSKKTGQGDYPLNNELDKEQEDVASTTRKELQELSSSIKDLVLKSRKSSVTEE
UniProt Q15208, residues 2-465: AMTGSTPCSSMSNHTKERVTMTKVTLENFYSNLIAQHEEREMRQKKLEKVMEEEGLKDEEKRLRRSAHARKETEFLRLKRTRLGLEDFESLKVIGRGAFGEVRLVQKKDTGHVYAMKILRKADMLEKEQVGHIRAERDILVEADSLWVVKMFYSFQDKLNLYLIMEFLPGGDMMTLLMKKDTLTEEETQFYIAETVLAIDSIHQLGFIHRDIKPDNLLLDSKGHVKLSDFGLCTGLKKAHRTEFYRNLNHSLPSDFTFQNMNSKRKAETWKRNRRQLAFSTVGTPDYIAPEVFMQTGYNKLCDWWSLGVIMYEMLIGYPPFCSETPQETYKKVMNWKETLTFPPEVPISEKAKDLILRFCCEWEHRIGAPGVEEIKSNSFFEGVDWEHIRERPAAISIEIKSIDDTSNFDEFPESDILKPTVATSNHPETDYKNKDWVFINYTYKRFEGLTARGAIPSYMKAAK

Experiments:
[1] = target: Mre11-Rad50-Nbs1 (MRN) complex (UniProt P49959); assay: co-immunoprecipitation in U2OS cells with or without IR (10 Gy)
HP1 [2] = target: HP1 (UniProt P45973); assay: immunoprecipitation with STK38 antibody, U2OS cells
HP1 [3] = target: HP1 (UniProt P45973); assay: co-immunoprecipitation in U2OS cells

Row | Substance | binding [1] | binding (HP1 [2]) | binding (HP1 [3])
1 | UFM1 specific ligase 1 (UFL1) (from UniProt O94874 2-794) (enzyme) | binds | – | –
2 | serine/threonine kinase 38 (STK38) (from UniProt Q15208 2-465) (enzyme) | – | binds | binds
